Measured values published in PubChem BioAssay AID2610 (Broad Institute, 2010).
The list shows a part of the results. Entries without a call are filed as inconclusive in the source.

Experiment: cytotoxicity toward RAS-transformed BJeLR fibroblasts, dose response, cell-based, alamar blue fluorescence, 48 h, cherrypicked samples (AID 2610)
Details: BJeLR fibroblast viability, at 13.3 µM (top of the series)

**Q.** With `N#Cc1ccc(-c2cccs2)nc1SCc1cccnc1` as the compound, how does the activity, negative = growth loss read?
**A.** -68.9%
